At least one peptide structure holds a part that was inferred or is arguable (an end, a ring closure or a residue). Peptide text beside a SMILES is read from it.
Assays:
Type in all cases: cell-based, human
estrogen receptor = experiment: ERE luciferase reporter gene transcription in MCF-7 cells; settings: 1 nM peptide with 10 nM 17β-estradiol, 24 hrs
Cyclin D1 [1] = experiment: Estrogen-induced cyclin D1 expression, western blot in MCF-7 and LNCaP cells; settings: 1 nM peptide with 10 nM 17β estradiol, 6 hrs
Cyclin D1 [2] = experiment: Androgen-induced cyclin D1 expression, western blot in MCF-7 and LNCaP cells; settings: 1 nM peptide with 10 nM R1881, 6 hrs

CC[C@H](C)[C@H](NC(=O)[C@H](CCCNC(=N)N)NC(=O)[C@H](C)NC(=O)[C@H](Cc1c[nH]cn1)NC(=O)[C@@H]1CCCN1C(=O)[C@H](Cc1c[nH]cn1)NC(=O)[C@@H]1CCCN1C(=O)[C@@H]1CCCN1C(=O)[C@@H]1CCCN1C(C)=O)C(=O)N[C@@H](CCCCN)C(N)=O [SEQ.ID NO.1, Ac-Pro-Pro-Pro-His-Pro-His-Ala-Arg-Ile-Lys-NH2] (Ac-PPPHPHARIK-NH2)
estrogen receptor regulated gene transcription (luciferase reporter) (estrogen receptor): Ineffectiveness
Cyclin D induction by estrogen (Cyclin D1 [1]): completely suppresses
Cyclin D induction by R1881 (Cyclin D1 [2]): suppresses
